Data reported in patent US5352595.
For part of these data: A weaker result is weaker than the reference pair of the same experiment. For part of these data: The exact form of at least one protein or probe is not confirmed. For part of these data: Where cells or extracts were used, other partners may take part.

Columns and labels:
Assay in all cases: EMSA
[1] = tested on: CAAT binding factor (chick skeletal muscle nuclear extract) (Gallus gallus); details: protein in an extract
[2] = tested on: SP1-site binding nuclear factor (chick muscle and dermal fibroblast nuclear extract) (Gallus gallus); details: protein in an extract
[3] = tested on: MyoD:E12 heterodimer

CACTCCTATTGGC (double strand) [myoD PRR M-CAT and CAAT oligonucleotide]
binding result [1]: binds

CCGCCC (double strand) [myoD PRR -110 SP1 site oligonucleotide]
binding result [2]: binds

GGCAGGCTGCA (double strand) [myoD PRR B site (-260)]
binding result [3]: binds more weakly
